PubChem BioAssay AID602196 – INSERM | 2012

Screen: 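Knock-downs that protect lung cancer cells from cisplatin or sensitise them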
Cells: human A549 lung cancer cells
Reagents: siRNA pair against human genes
Time to read-out: 48 h transfection before cisplatin; time from cisplatin to read-out not stated
Challenge: cisplatin at a dose killing half of control-siRNA cells; exact dose and duration not given
Detection: 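Shift in cisplatin death relative to control siRNA, from -50 (all cells die) to +50 (no cells die); siRNAs harmful on their own scored 0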
Direction: two-siRNA summed score (-2 to +2): higher = both siRNAs protect from cisplatin killing; -2 means both sensitise; mean protection from cisplatin (shift in death): higher = protection from cisplatin killing
Rule for the call: 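Each siRNA scores 0 if harmful alone by LDH or WST-1, otherwise +1 if it reduces and -1 if it increases cisplatin killing; a gene is active when both siRNAs agree (sum +2 or -2)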
Meaning of the calls: active = both siRNAs shift cisplatin killing the same way; inactive = no consistent shift, or siRNA harmful alone
The deposit covers about 23,000 reagents; this is a part drawn at random. 455 of all reagents (2%) count as active. 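Active includes both protection and sensitisation; some change values fall well beyond the stated -50 to +50 range.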 Unmarked entries are inactive. The numbers tell different reagents against one gene apart. Not all columns of the deposit are shown. The record does not give: the amount of reagent.

no.	gene knocked down	reagent	two-siRNA summed score (-2 to +2)	mean protection from cisplatin (shift in death) (%)
1	TPSG1	1	1	5.7
2	STMN1	1	0	-4.1
3	STMN1	2	0	0.8
4	LOC284021	1	0	13.8
5	SGTA	1	-1	-10.1
6	LOC285214	1	0	34.9
7	FARP2	1	0	15.5
8	LINC02538	1	0	6.9
9	SELPLG	1	-1	1.8
10	RFPL2	1	-2 (active)	-20.5
11	SH2D6	1	1	12.9
12	SLC38A7	1	-1	-14.1
13	INO80D	1	0	-6.7
14	NFATC1	1	0	-3.2
15	GNRH1	1	0	-10.9
16	C1orf52	1	1	13
17	ATP6V1C2	1	0	13.8
18	LOC441053	1	0	10.4
19	ZNF542P	1	0	7.9
20	TMSB4Y	1	1	10.9
21	LHX5	1	0	3
22	CCL26	1	-1	-11.9
23	CHRND	1	0	-1.2
24	ZNF296	1	0	18.6
25	NYAP2	1	0	10.3
26	RBM24	1	1	9.8
27	LOC390403	1	1	20.3
28	MAN1A1	1	0	0.3
29	LOC389846	1	0	15.2
30	RNF103	1	-2 (active)	-23
31	PMCHL1	1	0	2.9
32	PMCHL1	2	1	14.5
33	UHMK1	1	0	-3.7
34	LOC441188	1	0	8.8
35	PPM1J	1	-1	10.6
36	LOC388114	1	1	12.8
37	MAP3K13	1	-1	-8.4
38	H4C7	1	1	9.5
39	PSMB2	1	0	-0.5
40	EDN1	1	0	-12.4
41	RNF38	1	0	-3.9
42	BEND2	1	2 (active)	12.2
43	ZNF461	1	0	5.7
44	PTGIS	1	0	-1.1
45	LOC389624	1	0	-0.9
46	OTUD7A	1	0	5.2
47	UTP18	1	0	-4.2
48	SOX30	1	0	1.2
49	XPO6	1	0	2.4
50	LOC400602	1	0	7.5
51	LOC389172	1	1	14.1
52	SGK1	1	1	6.9
53	AIFM3	1	0	-14.4
54	MROH2A	1	0	12.1
55	NRF1	1	-1	-3.1
56	TENT2	1	0	8.9
57	ARL6IP4	1	0	16.9
58	SLC23A1	1	0	15
59	STK33	1	2 (active)	21.6
60	KLHL7	1	0	2.6
61	LOC440539	1	1	12.8
62	TMCO4	1	0	8.6
63	BPNT1	1	1	11.5
64	ARL10	1	0	18.4
65	LOC440872	1	0	6.3
66	SSPN	1	0	8.2
67	OR13J1	1	0	2.1
68	GRM2	1	0	1.9
69	DPY19L3-DT	1	1	10.4
70	MISO1	1	1	15.9
71	SLC6A15	1	0	5.3
72	ZNF671	1	0	4.2
73	MCM9	1	0	0.9

Records above whose gene name starts with G or g:
gene knocked down	reagent	two-siRNA summed score (-2 to +2)	mean protection from cisplatin (shift in death) (%)
GNRH1	1	0	-10.9
GRM2	1	0	1.9
